The values below come from patent US7112577B2, “Pharmaceutically acceptable alendronate salts in amorphous form” (Cipla Limited, priority 2001, dated 2006).

The conditions of the data set: moisture content no greater than about 3% by weight, more preferably less than about 1%.

For the compound `NCCCC(O)(P(=O)(O)O)P(=O)(O)O` [amorphous alendronate sodium, alendronate sodium], the “stability of amorphous product” value was “stable”.
